Data reported in article PMC3700381.
No constants are given. Whether binding was seen depends on the method and setting. Binding seen in cells or lysates may run through a third protein. Some entries that bind do so weakly or less than the wild type.

B1: AtSEOa (Arabidopsis sieve element occlusion protein a) (protein, UniProt Q93XX2 1-822)
chain: MAQRFQLNSQTLPTADPLKRVSLIPRSAEQRLADNAGERRPLAPRSHEDNPFGGHTDDHHVAAPADHNKVMDHNSENLGSIVPKTAHYPHPSEEILDANIRHSMVPKSLGPNSLGGRFGPGKKQAFHRNGRPMFSLSDDRVMADRVLKTHSPDMIFFDVTSLLSVVNDIFKSHVPSIDSSAPKPSLVFKDYADHTSFETFADLIDQISCEIDCKCLHGGESHGMMTSGLHLDSRNTTTFSVLSLVSKYRWDAKLVLVLSALAVKYGVFLLLAETHATNQLTKSLALIKQLPSIFSRQNALHQRLDKTRILMQDMVDLTTTIIDIYQLPPNHITAAFTDHIPTAVYWIVRCVLICVSHISGASGFKQDQIMSFMEVSEIHENSERLRKINAYLLEQFKKSKMTIEEGIIEEEYQELIQTFTTIIHVDVVPPLLRLLRPIDFLYHGAGVSKRRVGINVLTQKHVLLLISDLENIEKELYILESLYTEAWQQSFEILWVPVQDFWTEADDAKFEALHMNMRWYVLGEPRKLRRAAIRFVREWWGFKNRPILVALDPKGQVMSTNAFPMVWIWQPFAHPFTTARERDLWSEQEWNLEFLIDGTDPHSLNQLVDGKYICLYGGEDMQWIKNFTSLWRNVAKAANIQLEMVYVGKRNPKNGIQPIINTIREENLSHTLPDLFQIWFFWTRVESMWESKQRMLKAHGIKGREGFKEEEKDLVLQEVVAMLGYGGEGDGWGLVSKASDMMVRAKGNLFSRGLAEFNEWEVNIPTKGFLTALNDHLLMRLPPHHCTRFMLPETAGIIPNEVECTECRRTMEKYYLYQCCLE
B2: AtSEOb (Arabidopsis sieve element occlusion protein b) (protein, UniProt Q9SS87 1-740)
chain: MESLIKSQHAQQLAGHKNTTGKTPSMEMIPATGLAMSSDESMMLKLIQQTHSPDAREVQVRGLLSLVEDILDRATLDSEDTNASMLPLPTEDKLMQSSMMSVLDSVSYAIDRVACEIAYKSLTGSDSHEITMSVFEHLSSFQWDGKLVLTLAAFALNYGEFWLLVQFYSKNQLAKSLAMLKLVPVQNRVTLESVSQGLNDLIREMKSVTACVVELSELPDRYITPDVPQLSRILSTIPIAVYWTIRSVIACISQINMITAMGHEMMNTQMDLWETSMLANKLKNIHDHLAETLRLCYRHIEKQRSSESLKVLHSLFDTTHIDNMKILTALVHPKPHITPLQDGLTKRKVHLDVLRRKTVLLLISDLNILQDELSIFEQIYTESRRNLVGVDGKSHMPYEVVWVPVVDPIEDFERSPILQKKFEDLRDPMPWYSVDSPKLIERHVVEFMRGRWHFMNKPILVVIDPQGNEASLNALHMIWIWGTEAFPFTRSREEELWRRETFSLNLIVDGIDSVIFNWIKPDNYIFLYGGDDLDWIRRFTMAAKATAKDSNVNLEMAYVGKRNHSHREQIRRISEVIRSENLSHSWAEPALMWFFWTRLESMLYSKIQLGKADDHDDVMQGIKKILSYDKLGGWALLSKGPEIVMIAHGAIERTMSVYDRTWKTHVPTKGYTKAMSDHHHDEVLRETGKPCGHFDFHITARSGRIPEKMNCFECQRPMEKYMSFSCCHDEKLHEDENYNF

Columns and labels:
[1] = biological target: AtSEOa (Arabidopsis sieve element occlusion protein a) (Arabidopsis) (UniProt Q93XX2); assay: split reporter; BiFC with split mRFP1-Q66T fusions co-expressed in N. benthamiana epidermal cells by agroinfiltration (with p19 silencing repressor); leaf discs analysed by CLSM after 3 days
[2] = biological target: T1, AtSEOb (Arabidopsis sieve element occlusion protein b) (Arabidopsis) (UniProt Q9SS87); assay: as above
T1 sequence: B2 chain

Binder	binding [1]	binding [2]
B1	binds	binds
B2	–	binds
